# Reference: the supplement of paper PMC8866396
# Counter-ions that a name gives are not always drawn. ± gives the standard deviation of the averaged measurements. This is one part of the list. This data set is noisy: repeats of one test often differ as much as different tests do.
# What was measured:
# IL-6-GFP PC-9GR = assay: IL-6-GFP fluorescence relative to DMSO control (fraction of control); higher = more IL-6-GFP expression; conditions: compound concentration: 10 uM; treatment time: 48 h
# Method: (§1)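 IL-6-GFP-overexpressing PC-9 and PC-9GR EGFR-mutant lung cancer cells (3000 cells/well, 96-well) were treated for 48 h with each compound of the Selleck L2000 library at 10 uM. IL-6-GFP fluorescence was read on a high-content screening system, and viability by CCK-8 absorbance on a parallel plate set. Each value was normalised as compound well / DMSO control well; two independent replicates.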
# IL-6-GFP PC-9 = assay: as above; conditions: compound concentration: 10 uM; treatment time: 48 h
# Method: as §1
Compound,IL-6-GFP fluorescence (IL-6-GFP PC-9GR),IL-6-GFP fluorescence (IL-6-GFP PC-9)
Cl.c1ccc2c(c1)CCCC2C1=NCCN1 (stereo not drawn) [Tetrahydrozoline HCl],0.646 ± 0.3,0.898 ± 0.11
O.O.O=C([O-])CCNC(=O)c1ccc(N=Nc2ccc(O)c(C(=O)[O-])c2)cc1.[Na+].[Na+] [Balsalazide disodium],0.554 ± 0.18,0.735 ± 0.28
CC(=O)N1CC(O)CC1C(=O)O (stereo not drawn) [Oxaceprol],0.608 ± 0.46,0.9661 ± 0.0038
COc1ccc2cc(C(C)C(=O)[O-])ccc2c1.[Na+] (stereo not drawn) [Naproxen Sodium],0.913 ± 0.27,0.921 ± 0.23
CCC(=O)OC1(C(=O)CCl)C(C)CC2C3CC(F)C4=CC(=O)C=CC4(C)C3(F)C(O)CC21C (stereo not drawn) [Halobetasol Propionate],0.725 ± 0.41,1.14 ± 0.016
Cc1nc(Nc2ncc(C(=O)Nc3c(C)cccc3Cl)s2)cc(N2CCN(CCO)CC2)n1 [Dasatinib],1.2 ± 0.14,1 ± 0.066
CCOC(=O)OC1(C(=O)OCCl)CCC2C3CCC4=CC(=O)C=CC4(C)C3C(O)CC21C (stereo not drawn) [Loteprednol etabonate],0.634 ± 0.25,1.14 ± 0.27
Cc1ccc(S(=O)(=O)O)cc1.NC(=O)c1cccc2cn(-c3ccc(C4CCCNC4)cc3)nc12 (stereo not drawn) [Niraparib (MK-4827) tosylate],0.969 ± 0.011,0.911 ± 0.049
Cc1ccc(C(C)C)cc1 [p-Cymene],0.821 ± 0.16,0.821 ± 0.047
COc1cc2nccc(Oc3ccc(NC(=O)C4(C(=O)Nc5ccc(F)cc5)CC4)cc3)c2cc1OC.O=C(O)CC(O)C(=O)O [Cabozantinib malate (XL184)],0.65 ± 0.042,0.99 ± 0.13
Cc1c(O)c(C)c2c(c1O)C(=O)CC(c1ccc(O)cc1)O2 (stereo not drawn) [Farrerol],1.01 ± 0.47,0.66 ± 0.42
COc1ccc(S(=O)(=O)N(C(C)=O)c2ccccc2/C=C/c2cc[n+]([O-])cc2)cc1,2.5 ± 0.22,2.12 ± 0.18
COc1ccc2c(c1)nc(S(=O)Cc1ncc(C)c(OC)c1C)[n]2[Na] (stereo not drawn) [Omeprazole Sodium],0.989 ± 0.2,0.836 ± 0.12
COc1cc2nccc(Oc3ccc(NC(=O)NC4CC4)c(Cl)c3)c2cc1C(N)=O.CS(=O)(=O)O [lenvatinib Mesylate],1.1 ± 0.29,0.885 ± 0.021
O=C(Nc1ccc(O)cc1)c1ccccc1O [Osalmid],0.877 ± 0.29,0.474 ± 0.087
Cn1cnc2c(F)c(Nc3ccc(Br)cc3F)c(C(=O)NOCCO)cc21,0.863 ± 0.023,0.871 ± 0.028
O=C(O)c1cc(O)c(O)c(O)c1 [Gallic acid],0.83 ± 0.32,0.711 ± 0.41
Cc1ccc(NC(=O)c2ccc(CN3CCN(C)CC3)cc2)cc1Nc1nc(-c2cccnc2)cs1 [Masitinib (AB1010)],1.24 ± 0.18,0.958 ± 0.17
CCC(C(=O)O)c1ccc(N2Cc3ccccc3C2=O)cc1 (stereo not drawn) [Indobufen],0.889 ± 0.088,0.798 ± 0.023
C=C1CCC2C(C)(COC(=O)CCC(=O)O)C(OC(=O)CCC(=O)O)CCC2(C)C1/C=C/C1=CCOC1=O (stereo not drawn) [Dehydroandrographolide Succinate],0.847 ± 0.056,0.687 ± 0.34
CC1CC2C3CC(F)C4=CC(=O)C=CC4(C)C3(F)C(O)CC2(C)C1(O)C(=O)CO (stereo not drawn) [Diflorasone],0.876 ± 0.083,0.964 ± 0.054

# Exported as tab-separated lines: part of the list above
Compound	IL-6-GFP fluorescence (IL-6-GFP PC-9GR)	IL-6-GFP fluorescence (IL-6-GFP PC-9)
COc1ccc(S(=O)(=O)N(C(C)=O)c2ccccc2/C=C/c2cc[n+]([O-])cc2)cc1	2.5 ± 0.22	2.12 ± 0.18
COc1ccc2c(c1)nc(S(=O)Cc1ncc(C)c(OC)c1C)[n]2[Na] (stereo not drawn) [Omeprazole Sodium]	0.989 ± 0.2	0.836 ± 0.12
COc1cc2nccc(Oc3ccc(NC(=O)NC4CC4)c(Cl)c3)c2cc1C(N)=O.CS(=O)(=O)O [lenvatinib Mesylate]	1.1 ± 0.29	0.885 ± 0.021
O=C(Nc1ccc(O)cc1)c1ccccc1O [Osalmid]	0.877 ± 0.29	0.474 ± 0.087

# Remaining list, next part

Compound,IL-6-GFP fluorescence (IL-6-GFP PC-9GR),IL-6-GFP fluorescence (IL-6-GFP PC-9)
Cc1nc(Nc2ccc(F)cc2)nc(N2CCc3ccccc3C2C)c1C.Cl (stereo not drawn) [Revaprazan Hydrochloride],1.01 ± 0.063,0.976 ± 0.021
CS(=O)(=O)CCNCc1ccc(-c2ccc3ncnc(Nc4ccc(OCc5cccc(F)c5)c(Cl)c4)c3c2)o1.Cc1ccc(S(=O)(=O)O)cc1.Cc1ccc(S(=O)(=O)O)cc1,2.44 ± 0.42,1.35 ± 0.039
O=C(/C=C/c1cccc(S(=O)(=O)Nc2ccccc2)c1)NO [Belinostat (PXD101)],1.2 ± 0.14,0.983 ± 0.062
O=C(NCC1CN(c2ccc(N3CCOCC3=O)cc2)C(=O)O1)c1ccc(Cl)s1 (stereo not drawn) [Rivaroxaban],1.03 ± 0.14,0.731 ± 0.29
O=c1ccc2cc3ccoc3cc2o1 [Psoralen],0.652 ± 0.52,1.14 ± 0.14
Cc1ccc(-c2cc(C(F)(F)F)nn2-c2ccc(S(N)(=O)=O)cc2)cc1 [Celecoxib],1.011 ± 0.01,0.899 ± 0.023
O=c1[nH]c(=O)n(C2CC(O)C(CO)O2)cc1F (stereo not drawn) [Floxuridine],1.11 ± 0.045,0.637 ± 0.18
CC(C)c1c(C(=O)Nc2ccccc2)c(-c2ccccc2)c(-c2ccc(F)cc2)n1CCC(O)CC(O)CC(=O)O (stereo not drawn) [atorvastatin],0.814 ± 0.18,0.776 ± 0.067
O=c1ccc2ccc(O)c(O)c2o1 [Daphnetin],0.8201 ± 0.0077,1.79 ± 0.67
Cc1cc(C(C)(C)C)cc(C)c1CC1=NCCN1 [Xylometazoline],0.879 ± 0.046,0.7745 ± 0.0012
COc1ccc2cc(C(C)C(=O)O)ccc2c1 (stereo not drawn) [Naproxen],,0.812 ± 0.12
S=c1nc[nH]c2nc[nH]c12 [Mercaptopurine (6-MP)],1.1 ± 0.21,1.14 ± 0.024
C=CC1CN2CCC1CC2C(O)c1ccnc2ccc(OC)cc12.Cl.O.O (stereo not drawn) [Quinine HCl Dihydrate],0.935 ± 0.051,0.82 ± 0.082
COc1ccc2c(c1)c(CC(=O)O)c(C)n2C(=O)c1ccc(Cl)cc1 [Indomethacin],0.939 ± 0.54,1.04 ± 0.36
CC1Oc2cc(cnc2N)-c2c(nn(C)c2C#N)CN(C)C(=O)c2ccc(F)cc21 (stereo not drawn),1.01 ± 0.052,0.917 ± 0.11
NC(=S)N/N=C/c1ncccc1N [Triapine],2.38 ± 0.7,2.04 ± 0.037
COC(=O)c1cc(OC)c2c(c1-c1c(C(=O)OC)cc(OC)c3c1OCO3)OCO2 [Bifendate],0.648 ± 0.12,0.776 ± 0.055
CCC(C)(Oc1ccc(C2(c3ccc(OC(C)(CC)C(=O)O)cc3)CCCCC2)cc1)C(=O)O (stereo not drawn) [Clinofibrate],,0.796 ± 0.11
CCCCCCCCCCCCCCCCCCOP(=O)([O-])OC1CC[N+](C)(C)CC1 [Perifosine (KRX-0401)],0.702 ± 0.18,0.641 ± 0.029
CCN(CC)Cc1cc(Nc2ccnc3cc(Cl)ccc23)ccc1O.Cl.Cl.O.O [Amodiaquine dihydrochloride dihydrate],0.698 ± 0.26,0.908 ± 0.13
CC1CC2C(C(O)CC3(C)C2CCC3(O)C(=O)COC(=O)CCC(=O)O)C2(C)C=CC(=O)C=C12 (stereo not drawn) [Methylprednisolone hemisuccinate],0.957 ± 0.11,0.82 ± 0.16

Compound,IL-6-GFP fluorescence (IL-6-GFP PC-9GR),IL-6-GFP fluorescence (IL-6-GFP PC-9)
Nc1nc(=O)c2c([nH]1)NCC(CNc1ccc(C(=O)NC(CCC(=O)[O-])C(=O)[O-])cc1)N2C=O.O.O.O.O.O.[Ca+2] (stereo not drawn) [Leucovorin Calcium Pentahydrate],0.671 ± 0.18,0.686 ± 0.032
CC1=C(CC(=O)O)c2cc(F)ccc2/C1=C\c1ccc(S(C)=O)cc1 (stereo not drawn) [Sulindac],0.771 ± 0.24,1.05 ± 0.46
CC(C)CC(NC(=O)CNC(=O)c1cc(Cl)ccc1Cl)B1OC(=O)CC(CC(=O)O)(C(=O)O)O1 (stereo not drawn) [Ixazomib Citrate (MLN9708)],0.871 ± 0.12,1.09 ± 0.077
C#Cc1cccc(Nc2ncnc3cc(OCCOC)c(OCCOC)cc23)c1.Cl [Erlotinib HCl (OSI-744)],0.833 ± 0.089,0.799 ± 0.021
Nc1nc(CC(=O)Nc2ccc(CCNCC(O)c3ccccc3)cc2)cs1 (stereo not drawn) [Mirabegron],0.691 ± 0.22,1.03 ± 0.1
O=C(CCCc1ccccc1)[O][Na] [Sodium Phenylbutyrate],0.707 ± 0.24,0.995 ± 0.062
CC(C)(C)c1nc(-c2cccc(NS(=O)(=O)c3c(F)cccc3F)c2F)c(-c2ccnc(N)n2)s1.CS(=O)(=O)O [Dabrafenib Mesylate],1.1 ± 0.24,0.924 ± 0.11
COC1CC2CCC(C)C(O)(O2)C(=O)C(=O)N2CCCCC2C(=O)OC(C(C)CC2CCC(OC(=O)C(C)(CO)CO)C(OC)C2)CC(=O)C(C)/C=C(\C)C(O)C(OC)C(=O)C(C)CC(C)/C=C/C=C/C=C/1C (stereo not drawn),1.16 ± 0.19,0.91 ± 0.079
Nc1nc(N)c2nc(-c3ccccc3)c(N)nc2n1 [Triamterene],1.42 ± 0.028,1.08 ± 0.097
Cc1nc(-c2ccc(OCC(C)C)c(C#N)c2)sc1C(=O)O [Febuxostat],,0.796 ± 0.15
C=C(NC(=O)C(=C)NC(=O)c1csc(C2=NC3c4csc(n4)C4NC(=O)c5csc(n5)C(C(C)(O)C(C)O)NC(=O)C5CSC(=N5)/C(=C/C)NC(=O)C(C(C)O)NC(=O)c5csc(n5)C3(CC2)NC(=O)C(C)NC(=O)C(=C)NC(=O)C(C)NC(=O)C(C(C)CC)NC2C=Cc3c(C(C)O)cc(nc3C2O)C(=O)OC4C)n1)C(N)=O (stereo not drawn) [Thiostrepton],0.678 ± 0.47,1.07 ± 0.19
NC1CN(c2c(F)cc3c(=O)c(C(=O)O)cn(C4CC4F)c3c2Cl)CC12CC2.NC1CN(c2c(F)cc3c(=O)c(C(=O)O)cn(C4CC4F)c3c2Cl)CC12CC2.O.O.O (stereo not drawn) [Sitafloxacin Hydrate],0.685 ± 0.27,0.626 ± 0.021
Cl.Clc1ccc(CCCOCCCN2CCCCC2)cc1 [Pitolisant hydrochloride],0.934 ± 0.011,0.833 ± 0.015
CN(C(=O)c1c(O)c2ccccc2n(C)c1=O)c1ccccc1 [Roquinimex],,0.902 ± 0.045
CC(C)Cc1ccc(C(C)C(=O)OCc2ccccn2)cc1 (stereo not drawn) [Ibuprofen piconol],,0.818 ± 0.028
CCC1(O)C(=O)OCc2c1cc1n(c2=O)Cc2cc3cc(O)ccc3nc2-1 [(S)-10-Hydroxycamptothecin],,1.39 ± 0.16
N#Cc1ccc(C2CCCc3cncn32)cc1 (stereo not drawn) [Fadrozole],,0.89 ± 0.14
CCC(C)C(=O)OC1CC(C)C=C2C=CC(C)C(CCC3CC(O)CC(=O)O3)C21 (stereo not drawn) [Lovastatin],,0.989 ± 0.21
O=C(O)c1ccccc1Nc1cccc(C(F)(F)F)c1 [Flufenamic acid],,0.971 ± 0.028
